Data reported in PubChem BioAssay AID493240 (Broad Institute, 2011).
About 270 (21%) of roughly 1,300 compounds were called active. The rule behind the calls is not given here. The entries are a selection whose mix differs from that of the whole data set. Entries with a potency or affinity are not part of this list.

Assay: SK-MEL-5 parental cell viability loss, dose response, orthogonal assay for MITF inhibitor project, CellTiter-Glo, cherry-picked, set 3 (AID 493240)
Settings: SK-MEL-5 viability, ATP luminescence (CellTiter-Glo), 24 h; at 35 µM (top of the series)

SMILES | activity change, negative = viability loss
O=c1[nH]c(=S)[nH]c(O)c1N=Nc1ccc(S(=O)(=O)N2CCc3ccccc32)cc1 | inactive: -7.59%
Cc1ccc(N2C(=O)NC(=O)/C(=C\C=C\c3ccco3)C2=O)cc1 | inactive: -10.9%
Cc1cccc(N2C(=O)NC(=O)/C(=C\C=C\c3ccco3)C2=O)c1 | inactive: -26.4%
COc1cc2c(cc1/C=C/[N+](=O)[O-])OCO2 | inactive: -28.2%
NCCc1ccc(OCc2ccccc2)c(OCc2ccccc2)c1 | inactive: -18.1%
Cc1cc(C(=O)Nc2ccc3c(c2)OCCO3)nn1C(C)(C)C | inactive: -3.41%
O=C1NC(=O)N(Cc2ccccc2)C(=O)/C1=C\C=C\c1ccco1 | inactive: 9.96%
Cc1cc(C(=O)Nc2ccccc2)nn1C(C)(C)C | inactive: -1.13%
CN1C(=O)/C(=C/c2cccn2-c2ccc3ccccc3c2)C(=O)NC1=S | inactive: -24%
O=C1NC(=O)N(Cc2ccc(F)cc2)C(=O)/C1=C\C=C\c1ccco1 | inactive: -4.63%
CC(C)c1ccc(N2C(=O)NC(=O)/C(=C/C=C/c3ccco3)C2=O)cc1 | inactive: -15.1%
O=C1NC(=O)N(Cc2ccccc2Cl)C(=O)/C1=C/c1cccs1 | inactive: -26.9%
O=C1NC(=O)N(c2ccccc2)C(=O)/C1=C/C=C/c1ccco1 | inactive: -5.93%
O=C1NC(=O)N(Cc2ccccc2)C(=O)/C1=C/C=C/c1ccco1 | inactive: -11%
Cc1cc(C)cc(N2C(=O)NC(=O)/C(=C\C=C\c3ccco3)C2=O)c1 | inactive: -2.99%
CC(C)c1oc(=O)cc2c1[C@@H](O)[C@H]1OC(=O)[C@@]3(C)C[C@@H](O)[C@@H](O)[C@@]2(C)C13 (stereo not given in full) | inactive: -1.59%
Cc1cccc(N2C(=O)NC(=O)/C(=C\c3cccn3-c3ccc(Cl)cc3)C2=O)c1 | inactive: -29%
CCCCCCn1c(=O)c(C(=O)Nc2cnccn2)c(O)c2ccccc21 | inactive: -6.16%
Cc1ccc(N2C(=O)NC(=O)/C(=C/C=C/c3ccco3)C2=O)cc1 | inactive: -9.54%
O=C1NC(=S)NC(=O)C1=Cc1cccn1-c1ccc(O)cc1 | inactive: -31.5%

Another view of part of the listing above:
SMILES	activity change, negative = viability loss
CC(C)c1ccc(N2C(=O)NC(=O)/C(=C/C=C/c3ccco3)C2=O)cc1	inactive: -15.1%
O=C1NC(=O)N(Cc2ccccc2Cl)C(=O)/C1=C/c1cccs1	inactive: -26.9%

Additional structures follow.

SMILES | activity change, negative = viability loss
CC(C)N1C(=O)/C(=C/C=C/c2ccco2)C(=O)N(Cc2ccco2)C1=O | inactive: -9.65%
C/C(=C\c1ccc(N(C)C)cc1)[N+](=O)[O-] | inactive: -28.8%
NC(Cc1nc2ccccc2[nH]1)c1ccc(Cl)cc1 (stereo not given) | inactive: -5.43%
O=C(c1ccccc1)C(CN1CCCC1)c1ccccc1 (stereo not given) | inactive: -38%
Cc1ccc(-c2cc(-c3ccc(C)cc3)[n+](C)o2)cc1 | inactive: -46.6%
O=C1NC(=O)C(=Cc2ccc(-c3ccc(Cl)cc3)o2)C(=O)N1 | inactive: -5.27%
O=C1NC(=S)NC(=O)C1=Cc1cccc2cc3ccccc3cc12 | inactive: -29.5%
Cc1cc(C)cc(N2C(=O)NC(=O)/C(=C\c3cccn3-c3ccccc3)C2=O)c1 | inactive: -35.4%
C=CCN1C(=O)NC(=O)/C(=C/C=C/c2ccccc2)C1=O | inactive: -12%
CCOC(=O)c1c(-n2c(C)cc(C=C3C(=O)NC(=S)NC3=O)c2C)sc2c1CCCC2 | inactive: -21.6%
CCCCCn1c(=O)c(C(=O)Nc2cnccn2)c(O)c2ccccc21 | inactive: -13.2%
O=C(Nc1ccc(OC(=O)N2CCCCC2)cc1)N1CCOCC1 | inactive: -2.34%
C=CCN1C(=O)/C(=C/c2cc(C)n(-c3cccnc3)c2C)C(=O)NC1=S | inactive: -14.5%
O=C1NC(=O)C(=Cc2ccc(-c3cc(Cl)ccc3[N+](=O)[O-])o2)C(=O)N1 | inactive: -10.4%
CCOc1ccc(-c2cc(C)[n+](CCO)c(-c3ccc(OCC)cc3)c2)cc1 | inactive: -23.6%
CCc1ccc(N2C(=O)NC(=O)/C(=C\C=C\c3ccco3)C2=O)cc1 | inactive: -9.95%
CC(C)n1c(O)c(C2c3cc(Cl)ccc3Oc3[nH]c(=O)n(C(C)C)c(=O)c32)c(=O)[nH]c1=O (stereo not given) | inactive: 16.1%
CN(C)c1ccc(/C=C2/C(=N\O)C3CCN2CC3)cc1 | inactive: 1.02%
O=C1NC(=O)N(CCc2ccc(F)cc2)C(=O)/C1=C\C=C\c1ccccc1 | inactive: 38.4%
CCOC(=O)Cn1cc([N+](=O)[O-])nc1[N+](=O)[O-] | inactive: 1.04%
